In patent US11357857B2, “Excipient compounds for protein processing” (COMERA LIFE SCIENCES, INC., priority 2014, dated 2022):
Where “and” joins values, the source holds several entries; their conditions need not be identical. Equal values may be shown once. Residues, ends and D or L forms follow the SMILES beside them.

Columns and labels:
[1] = tested on: bovine gamma globulin (BGG); test: TFF concentration of BGG for […], protein concentration by Bradford assay (Example 26); conditions: 15 mg/mL caffeine
ustekinumab = test: Protein-A spin plate elution with excipient buffers, one elution wash, SEC peak area (Example 29); conditions: for Integrated peak area: 20 mM citrate pH 2.6, excipient about 100 mM (Table 26)
ipilimumab [2] = test: as above; conditions: 20 mM citrate pH 2.6, excipient about 100 mM (Table 26)
omalizumab [3] = test: as above; conditions: 20 mM citrate pH 2.6, excipient about 100 mM (Table 26)
tocilizumab [4] = test: as above; conditions: 20 mM citrate pH 2.6, excipient about 100 mM (Table 26)
[5] = tested on: bovine gamma globulin (BGG); test: Tangential flow filtration (TFF) of BGG, mass transfer coefficient (Example 25); conditions: 15 mg/mL caffeine
ipilimumab [6] = test: Protein-A spin plate elution with excipient buffers, two elution washes, SEC peak area (Example 28); conditions: elution buffer 20 mM citrate pH 2.6, excipient about 100 mM (Table 21)
tocilizumab [7] = test: as above; conditions: elution buffer 20 mM citrate pH 2.6, excipient about 100 mM (Table 21)
omalizumab [8] = test: as above; conditions: elution buffer 20 mM citrate pH 2.6, excipient about 100 mM (Table 21)

Cn1c(=O)c2c(ncn2C)n(C)c1=O [Caffeine]
Increase of final protein concentration vs control [1]: approximately 42%
Integrated peak area (ustekinumab): 5084 mAU * min
Peak area normalized to salt control (ustekinumab; excipient about 100 mM (Table 26)): 120.0%
Peak area (ipilimumab [2]): 6051 mAU * min
Integrated peak area (omalizumab [3]): 5807 mAU * min
Integrated peak area (tocilizumab [4]): 5656 mAU * min
Increase of mass transfer coefficient vs control [5]: ~13%
Mass Transfer Coefficient kc ([5]; 150 mM NaCl, 20 mM histidine pH 6, best fit): 25.4 LMH and 25.4 ± 0.1 LMH

NCCS(=O)(=O)O [taurine]
Peak area (ipilimumab [2]): 7557 mAU * min
Integrated peak area (omalizumab [3]): 4676 mAU * min
Integrated peak area (tocilizumab [4]): 5396 mAU * min
Peak area (ipilimumab [6]): 3958 mAU*min
Peak area normalized to salt control (ipilimumab [6]): 97.0%

NC(=O)c1cccnc1 [Niacinamide]
Integrated peak area (ustekinumab): 5848 mAU * min
Peak area (ipilimumab [2]): 6300 mAU * min
Peak area normalized to salt control (tocilizumab [7]): 82.0%
Integrated peak area (omalizumab [3]): 5748 mAU * min
Integrated peak area (tocilizumab [4]): 5225 mAU * min
Peak area (ipilimumab [6]): 4295 mAU*min

CN1CCCC1=O [N-Methyl-2-pyrrolidone]
Peak area normalized to salt control (omalizumab [8]): 97.0%
Peak area normalized to salt-free control (omalizumab [8]): 87.0%
Peak area normalized to salt control (tocilizumab [7]): 8.4%
Peak area normalized to salt-free control (tocilizumab [7]): 9.3%
Peak area (ipilimumab [6]): 386 mAU*min
Peak area normalized to salt control (ipilimumab [6]): 9.5%
Peak area normalized to salt-free control (ipilimumab [6]): 8.8%

OC[C@H]1O[C@@](CO)(O[C@H]2O[C@H](CO)[C@@H](O)[C@H](O)[C@H]2O)[C@@H](O)[C@@H]1O [sucrose, reference compound]
Peak area normalized to salt-free control (omalizumab [8]): 95.0%
Peak area normalized to salt-free control (tocilizumab [7]): 37.0%
Peak area (ipilimumab [6]): 4585 mAU*min

c1c[nH]cn1 [Imidazole]
Integrated peak area (ustekinumab): 4617 mAU * min
Peak area (ipilimumab [2]): 6071 mAU * min
Integrated peak area (omalizumab [3]): 2589 mAU * min
Integrated peak area (tocilizumab [4]): 4754 mAU * min

COC(=O)[C@H](Cc1ccccc1)NC(=O)[C@@H](N)CC(=O)O [Aspartame] (H-Asp-Phe-OMe)
Peak area (ipilimumab [6]): 4012 mAU*min

OC[C@H]1O[C@H](O[C@H]2O[C@H](CO)[C@@H](O)[C@H](O)[C@H]2O)[C@H](O)[C@@H](O)[C@@H]1O [trehalose, reference compound]
Peak area (ipilimumab [6]): 3667 mAU*min

O=S(=O)(O)c1ccc(O)cc1 [4-hydroxybenzene sulfonic acid]
Integrated peak area (ustekinumab): 4132 mAU * min
Peak area (ipilimumab [2]): 5836 mAU * min
Integrated peak area (omalizumab [3]): 3190 mAU * min
Integrated peak area (tocilizumab [4]): 4539 mAU * min

CC1=CC(=O)NS(=O)(=O)O1 [Acesulfame K, acesulfame potassium]
Peak area (ipilimumab [6]): 1567 mAU*min
